Patent US20030161791A1, “Water-soluble polymer conjugates of retinoic acid” (priority 2001, published 2003)
At least one read-out could not be matched to a standard name with certainty.

Experiment: Hydrolysis of PEG-ATRA ester conjugate in rat serum
Type: in vitro ADME
Conditions: 37° C.

With “mPEG (5 kDa) ATRA Ester Conjugate [Example 1]” the “half-life (t 1/2) of the hydrolysis” value was “approximately 2.5 hours”.
